Library screen at single concentrations

The filed quantity is “Percent Effect” (%).
How 0% and 100% were set is not recorded. Most values in the screen are low, and negative values occur.
This is an unselected part of the compounds tested.
Two or more numbers in one place are separate tests of the same structure; such repeats can differ widely.
A dash means the value is not listed here; it may have been measured.

T. brucei: 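Whole-parasite assay of Trypanosoma brucei over 72 hours; the read-out is not stated. Concentration: 30 µM. Higher reads as stronger inhibition (inferred: compounds with an IC50 in retests scored well above the rest). Values scatter widely below zero; nearly all retest evidence comes from the higher of the two concentrations used. Of about 64,000 compounds tested this way, about 940 (1.5%) reached 50% or more in at least one test.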
Leishmania in macrophages: 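Cell assay of Leishmania donovani living inside macrophages; the read-out is not stated. Compounds at 30 µM. Higher reads as stronger inhibition (inferred: compounds with an IC50 in retests scored well above the rest). About 69,000 compounds were tested under these conditions; 1.5% (about 1,000) showed 50% or more at least once.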

Compound	T. brucei	Leishmania in macrophages
CC(C)N(C)[C@@H]1CCN(C(=O)[C@H]2CCCO2)[C@H]1Cc1cnn(C)c1	-63.46	-3.952 and 17.32
CCc1n[nH]c(C2CN(C(=O)c3cnc(C)nc3CC)CCO2)n1 (stereo not shown)	-	4.691
COCC(O)CN1CCC(=O)N(Cc2ccco2)Cc2ccccc21 (stereo not shown)	-45.11	-13.85
c1ccc(NCc2ccc(Cn3ccnc3)cc2)nc1	-3.203	20.25
CN(C)CCN1CCC2(CCN(C(=O)c3cccc(F)c3)CC2)C1=O.O=C(O)C(F)(F)F	-41.47	-4.147
Cc1nc(N2C[C@@H](CN3CCCN(C)CC3)[C@@H](CO)C2)c2sccc2n1	-18.84	-3.078
Cc1nc(CNC(=O)CCN2CCN(c3ccccn3)CC2)oc1C	-40.33	-11.06
CNc1cc(C2CN(C(=O)c3cnn(C)c3)CCO2)nc(C)n1 (stereo not shown)	-24.8	-12.57
Cc1cc(C)c(CNC(=O)N(C)Cc2ccc(F)cc2)c(=O)[nH]1	-31.57	-15.8
O=C(COc1ccccc1)N1CCC[C@]2(C[C@H](OCC3CC3)CO2)C1	29.22	17.02
O=C(O)C(F)(F)F.O=C(O)C(F)(F)F.c1cncc(COCc2nnc3n2CCN(CC2CC2)C3)c1	-1.617	-3.437
O=C(Nc1cccc(CN2CCC(CO)CC2)c1)c1cc(Cl)c[nH]1	0.2409	28.48
Cc1nccn1-c1ccc(CNC(=O)c2ccc(O)nc2)cn1	-19.87	28.49
Cc1cc(C2CCCN2C(=O)COc2ccc(CC#N)cc2)on1 (stereo not shown)	-	16.13
CCN1CCC2(CCN(c3ncccn3)CC2)C1=O.O=C(O)C(F)(F)F	-50.37	-8.891
CC(C)NC(=O)CN1CCC2(CC1)OCCO2	-36.09	8.897
CC(=O)NC(Cc1c[nH]c2cc(F)ccc12)C(=O)Nc1cnn(C)c1 (stereo not shown)	-41.19	-18.62
Cc1nc2c(c(N(C)C)n1)CCN(C(=O)c1sccc1S(N)(=O)=O)C2	-7.297	28.72
CC(C)NC(=O)CS(=O)(=O)c1cc2c(cc1Cl)OCCO2	-18.63	-7.259
CN(C)C(CNC(=O)N(Cc1ccco1)C1CC1)c1cccs1 (stereo not shown)	-27.35	-3.643
O=C(O)c1csc(S(=O)(=O)N2CCCc3ccc(F)cc32)c1	44.3	5.885
COCCn1cc(NC(=O)N(CCC(N)=O)Cc2ccccc2)cn1	-78.73	0.3566
[H][C@@]12CCN(C(=O)c3cccnc3OC)C[C@@]1([H])O[C@H](C)C2	19.9	18.37
Cc1ccc(F)c(OC2(C(=O)O)CCN(C(=O)c3ccccc3)CC2)c1	-32.88	22.83
Cl.NCCC(=O)Nc1ccc(-c2ccccc2)cc1	22.23	43.86
Cn1ncnc1CNc1ccccc1C(=O)NC(C)(C)C	-25.55	18.09
CC(C)N1CCc2ncn(C)c2C1C(=O)NCCN1CCCC1 (stereo not shown)	-43.99	28.16
CN1CCOC(C(=O)Nc2ccc3[nH]nnc3c2)C1 (stereo not shown)	-5.986	14.75
COCC1(CNC(=O)Nc2cc(F)ccc2OC)CCCC1	12.14	-27.72
O=C(O)C(F)(F)F.O=C(O)C(F)(F)F.c1cncc(CN2CCCn3nnc(COCC4CC4)c3C2)c1	-24.24	-6.778
O=S(=O)(NC1CC1)c1cccc(Br)c1	-37.69	-7.893
N#Cc1cccnc1N1CCN(S(=O)(=O)NCc2ccccc2)CC1	-28.68	-9.703
Cc1ccc(-c2nn(C)c(C(=O)O)c2Br)cc1	-23.5	14.55
COc1ccc(C(=O)NCC(C)(O)CCc2ccccc2)cc1 (stereo not shown)	-1.476	-18.37 and -0.8015
COc1cc(C(=O)Nc2nc(C)no2)cc(OC)c1Br	-	-4.215
Cc1noc(C)c1C(=O)N(C)Cc1nc(-c2ccccn2)no1	20.31	21.79
CS(=O)(=O)c1ccc(CNC(=O)NCc2cc[nH]n2)cc1	-4.84	-10.97
CN1CC(C(=O)NC(C)(C)CNC(=O)OC(C)(C)C)CC1=O (stereo not shown)	-61.83	-3.03
CCc1nc(CNCCn2cc(C)cn2)no1	-22.41	6.431
Cc1cc(NCCn2cccn2)n2ncnc2n1	-27.55	12.12
CCc1nc(CN(C)C2CCCN(c3cccnn3)C2)no1 (stereo not shown)	-26.56	-12.06
COc1cccc(CNCc2nc3ccccc3c(=O)[nH]2)c1	-	10.36
O=C(NC1CCCCC1)N1CCC(N2Cc3ncccc3C2=O)CC1	-5.454	15
CCCNC(=O)c1cc(-c2cnc(N3CCCC3)nc2)cn1C	-994.8	-21.06
Cc1cc(-c2cnn(C)c2)ccc1OCC(N)=O	-3.218	17.29

Repeated from the top, 5 entries:

Compound	T. brucei	Leishmania in macrophages
CC(C)N(C)[C@@H]1CCN(C(=O)[C@H]2CCCO2)[C@H]1Cc1cnn(C)c1	-63.46	-3.952 and 17.32
CCc1n[nH]c(C2CN(C(=O)c3cnc(C)nc3CC)CCO2)n1 (stereo not shown)	-	4.691
COCC(O)CN1CCC(=O)N(Cc2ccco2)Cc2ccccc21 (stereo not shown)	-45.11	-13.85
c1ccc(NCc2ccc(Cn3ccnc3)cc2)nc1	-3.203	20.25
CN(C)CCN1CCC2(CCN(C(=O)c3cccc(F)c3)CC2)C1=O.O=C(O)C(F)(F)F	-41.47	-4.147

From ChEMBL document CHEMBL3988442, “University of Dundee, Small-Polar-MMV Screening Library” (2021).